Earlier results, collected in patent publication US20080113063A1, “MICRONUTRIENT SUPPLEMENT” (priority 2006, published 2008).
For at least one compound, name, drawing or mass did not settle the structure.

Tested on: Avian broiler chicks
Conditions: cited from earlier work

For `[O-2].[Zn+2]` [feed-grade zinc oxide, zinc oxide], the “zinc bioavailability relative to zinc in reagent-grade zinc sulfate heptahydrate” value is given as “about 49%”.
